Laboratory results reported in patent publication KR20230117367A (dated 2023).

Target: T1, recombinant human BCMA protein Fc fusion (human, UniProt Q02223 1-54)
T1 construct: Staining reagent for CAR on T cells; also called BCMA-Fc fusion protein; 재조합 인간 BCMA 단백질의 Fc 단편; not shown: Fc part
T1 sequence (looked up): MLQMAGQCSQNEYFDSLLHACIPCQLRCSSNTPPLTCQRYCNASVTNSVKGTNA
Assay: flow cytometry of CAR-T cells stained with recombinant human BCMA-Fc (days 7, 21, 29)

B1: chimeric antigen receptor BCMA-CA8 (other)
chain: DIQLTQTTSSLSASLGDRVTISCSASQDISNYLNWYQQKPDGTVELVIYYTSNLHSGVPSRFSGSGSGTDYSLTIGYLEPEDVATYYCQQYRKLPWTFGGGSKLEIKRGGGGSGGGGSGGGGSEVQLQQSGAVLARPGASVKMSCKGSGYTFTNYWMHWVKQRPGQGLEWIGATYRGHSDTYYNQKFKGKAKLTAVTSTSTAYMELSSLTNEDSAVYYCTRGAIYNGYDVLDNWGQGTLVTVSSFVPVFLPAKPTTTPAPRPPTPAPTIASQPLSLRPEACRPAAGGAVHTRGLDFACDIYIWAPLAGTCGVLLLSLVITLYCKRGRKKLLYIFKQPFMRPVQTTQEEDGCSCRFPEEEEGGCELRVKFSRSADAPAYQQGQNQLYNELNLGRREEYDVLDKRRGRDPEMGGKPRRKNPQEGLYNELQKDKMAEAYSEIGMKGERRRGKGHDGLYQGLSTATKDTYDALHMQALPPR
notes: CAR on T cells; also called CART-BCMA-CA8
B1: binds.
